Assay results published in US20140030274A1.
No constants are given. Whether binding was seen depends on the method and setting. Some entries that bind do so weakly or less than the wild type. For some of these results: Tags and fused reporters may be left off the sequences shown.

T1: …
T1 sequence (peptide): KKVVVVVKK

T2: …
T2 sequence (peptide): KKVVVVVVVKK


Legend:
[1] = molecular target: T1, …; assay: HDX-MS, 30 µM proSP-C BRICHOS and 40 µM peptide
[2] = molecular target: T2, …; assay: HDX-MS, 30 µM proSP-C BRICHOS and 40 µM peptide; remark: listed apart in the source
[3] = molecular target: proSP-C BRICHOS (recombinant human, His59 to Ile197 of proSP-C, Examples 4-8) (human) (UniProt P11686); assay: gel filtration on Superdex75, self-association of proSP-C BRICHOS
[4] = molecular target: Aβ(M1-42) (human); assay: gel filtration on Superdex75 and SDS PAGE of fractions, 0 and 2 h incubation

binding [1] | binding [2] | binding [3] | binding [4] | Binder
binds | binds | – | – | proSP-C BRICHOS (as used beside CTC in the HDX study of Example 2) (protein) TTATFSIGSTGLVVYDYQQLLIAYKPAPGTCCYIMKIAPESIPSLEALNRKVHNFQMECSLQAKPAVPTSKLGQAEGRDAGSAPSGGDPAFLGMAVNTLCGEVPLYYI
– | – | binds | binds | proSP-C BRICHOS (recombinant human, His59 to Ile197 of proSP-C, Examples 4-8) (protein) HMSQKHTEMVLEMSIGAPEAQQRLALSEHLVTTATFSIGSTGLVVYDYQQLLIAYKPAPGTCCYIMKIAPESIPSLEALNRKVHNFQMECSLQAKPAVPTSKLGQAEGRDAGSAPSGGDPAFLGMAVNTLCGEVPLYYI
